{"source": "PubChem BioAssay AID493014", "about": "(National Center for Advancing Translational Sciences (NCATS), 2011)", "note": "The campaign covered roughly 340,000 compounds. About 170 (0.05%) were called active. The inconclusive results got no clear call from the source; some entries with a clear call stand among them for comparison. Calls follow the shape of the dose curve; as a rule, active = well fitted inhibition curve with a large enough effect in the signal ratio, with a control signal flat (not every such curve was filed as active); inconclusive = small, poorly fitted or top-dose-only effect, or effect the other way, or a change in a side signal; inactive = flat fitted curve, though single readings scatter; the % refers to the signal ratio. Where the call is inconclusive, the potency comes from a doubtful curve fit. Potency is read from the fitted curve at half-maximal effect.", "data": [{"test": "qHTS Assay to Find Inhibitors of Chronic Active B-Cell Receptor Signaling;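 as to activity change, negative = inhibition: plate controls were basal doxycycline-induced cells for no effect and cells given 10 µM MG132 for full effect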", "conditions": "ABC-DLBCL IkBa-CBG/CBR reporter, luminescence ratio (green luciferase fused to IkBa over red control in TMD8 lymphoma cells), 4 h; activity change, negative = inhibition: at 46.1 µM (top of the series)", "how_it_was_run": "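Compounds up to 46 uM were incubated four hours with TMD8 cells whose green CBG68 luciferase is fused to IkappaBalpha; red CBR luminescence normalised the signal, and concentration-effect curves were fitted to fusion, red and ratio data.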", "values": [{"smiles": "O=C(O)CSCCCC(=O)Nc1ccc(Br)cc1", "Potency": "inconclusive: 35.5 µM [falling, single point]"}, {"smiles": "N=c1c2c(-c3ccccc3)c(-c3ccccc3)n(Cc3ccco3)c2ncn1CCCO", "activity change, negative = inhibition": "inconclusive: -4.94%"}, {"smiles": "COc1cc(OC)c(OC)cc1CN1CCN(C(=O)CC(C)C)CC1", "activity change, negative = inhibition": "inactive: 0.34%"}, {"smiles": "CCCCCCc1cc2cc(-c3nnc(-c4cc(OC)c(OC)c(OC)c4)o3)c(=O)oc2cc1O", "activity change, negative = inhibition": "inactive: 2.26%"}, {"smiles": "COC(=O)c1sc(=S)n(-c2cccc(Cl)c2)c1N", "activity change, negative = inhibition": "inconclusive: 5.62%"}, {"smiles": "CC(C)(C)OC(=O)NCCCC[C@H](NC(=O)c1nc[nH]c1C(=O)N1CCN(c2ccccc2)CC1)C(=O)OC(C)(C)C", "activity change, negative = inhibition": "inconclusive: 10.4%"}, {"smiles": "Cc1ccc(NC(=O)c2ccc3c(c2)OCCO3)cc1C", "Potency": "inconclusive: 14.1 µM [falling, single point]"}, {"smiles": "Cc1cc2nc(-c3ccc(SCC(=O)N4CCOCC4)nc3)[nH]c2cc1C", "activity change, negative = inhibition": "inconclusive: -0.377%"}, {"smiles": "CCCC(c1nnnn1C(C)(C)CC)N(CCCO)Cc1cc2cc(C)cc(C)c2[nH]c1=O", "note": "(centres undefined)", "activity change, negative = inhibition": "inconclusive: -15.7%"}, {"smiles": "C=CC[n+]1c(-c2ccc(C)cc2)csc1Nc1c(C)n(C)n(-c2ccccc2)c1=O", "activity change, negative = inhibition": "inactive: 1.39%"}, {"smiles": "Nc1cc(-c2ccc(Cl)cc2)nn1S(=O)(=O)c1cccc2nsnc12", "activity change, negative = inhibition": "inconclusive: -4.33%"}, {"smiles": "O=C(CNCCC1=CCCCC1)Nc1ccccc1N1CCCCC1", "Potency": "inconclusive: 16.4 µM [falling, partial curve, poor fit]"}, {"smiles": "COc1ccc(-n2cc(CNCCc3cscn3)c(-c3ccccc3Cl)n2)cc1", "activity change, negative = inhibition": "inconclusive: -15.6%"}, {"smiles": "COc1ccc(CNC(=O)C2CCN(c3cc(C(=O)Nc4cccc(OC)c4)ccn3)CC2)cc1", "activity change, negative = inhibition": "inactive: 0.417%"}, {"smiles": "C=CCOc1ccc(/C=N/Nc2ccccn2)cc1OC", "activity change, negative = inhibition": "inactive: 5.42%"}, {"smiles": "CCOc1ccc(NC(=O)C(CC(=O)O)Cc2ccc(C)cc2)cc1", "note": "(centres undefined)", "activity change, negative = inhibition": "inactive: 8.72%"}, {"smiles": "CCc1nc2ccccc2n(CCOCCn2c(=O)c(CC)nc3ccccc32)c1=O", "activity change, negative = inhibition": "inactive: -1.01%"}, {"smiles": "COc1ccc(P(=O)(COc2ccc([N+](=O)[O-])cc2)c2ccc(OC)cc2)cc1", "activity change, negative = inhibition": "inconclusive: -7.55%"}, {"smiles": "O=C(CSc1nnnn1-c1ccccc1)Nc1ccc(N2CCOCC2)cc1", "activity change, negative = inhibition": "inconclusive: 5.82%"}, {"smiles": "CC(C)CN=C(NS(=O)(=O)c1ccccc1)C(Cl)(Cl)Cl", "Potency": "inconclusive: 6.51 µM [falling, single point]"}, {"smiles": "CCOC(=O)c1sc(NC(=O)CSc2n[nH]c(-c3ccncc3)n2)c(C#N)c1C", "activity change, negative = inhibition": "inactive: 5.35%"}, {"smiles": "CCN1C(=O)c2cccc3c(S(=O)(=O)N(C(C)=O)c4ccc(OC(C)=O)cc4)ccc1c23", "activity change, negative = inhibition": "inconclusive: -13.9%"}, {"smiles": "CC1(C)C(=O)Nc2ccccc2N1C(=O)COC(=O)c1cc([N+](=O)[O-])ccc1N", "Potency": "inconclusive: 29.1 µM [falling, single point]"}, {"smiles": "CCn1nc(C(=O)OC(C(=O)c2c[nH]c3ccccc23)c2ccccc2)c2ccccc2c1=O", "note": "(centres undefined)", "Potency": "inconclusive: 3.66 µM [rising, partial curve, poor fit]"}, {"smiles": "COc1ccc(C(=O)OCc2cc(=O)n3ccsc3n2)cc1F", "activity change, negative = inhibition": "inconclusive: 9.41%"}, {"smiles": "Cc1ccc2c(c1)C(=O)C(=O)N2CC1COc2ccccc2O1", "note": "(centres undefined)", "Potency": "inconclusive: 11.2 µM [falling, partial curve, poor fit]"}, {"smiles": "O=S(=O)(c1ccc(Br)cc1)N1CCN=C1SCc1cccnc1", "activity change, negative = inhibition": "inconclusive: -2.49%"}, {"smiles": "COc1ccc(Cl)cc1NC(=O)c1cc(-c2ccco2)on1", "activity change, negative = inhibition": "inconclusive: 6.46%"}, {"smiles": "COc1ccccc1-c1nnc(NC(=O)OCC(C)C)s1", "activity change, negative = inhibition": "inconclusive: 1.06%"}, {"smiles": "CC1(C)CC(=O)C(C=NCCN2CCNC2=O)=C(O)C1", "activity change, negative = inhibition": "inconclusive: 4.05%"}, {"smiles": "COC1=Cc2c(ccc3ccc(=O)oc23)OC1(C)C", "activity change, negative = inhibition": "inconclusive: 5.89%"}, {"smiles": "CN(Cc1ccccc1)C(=O)CN1C(=O)CSc2ccc(S(=O)(=O)N3CCOCC3)cc21", "activity change, negative = inhibition": "inactive: 7.39%"}, {"smiles": "CCOC(=O)N1CCC(=NNC(=O)NC2CCCCC2)CC1", "activity change, negative = inhibition": "inconclusive: -18.4%"}, {"smiles": "C/C(=N\\Nc1ccccn1)c1ccc(OC(F)F)cc1", "activity change, negative = inhibition": "inconclusive: 2.03%"}, {"smiles": "CC1CN(C)C(C)C/C1=N\\Oc1ccc([N+](=O)[O-])cc1", "note": "(centres undefined)", "Potency": "inconclusive: 17.8 µM [rising, single point]"}, {"smiles": "COc1cc(C(=O)NCCOc2ccccc2C)c(Br)c(OC)c1OC", "Potency": "inconclusive: 29.1 µM [rising, partial curve, poor fit]"}, {"smiles": "COc1ccc(N(C(=O)/C=C\\C(=O)Nc2ccc(Cl)cc2)C(C(=O)NCc2ccco2)c2ccc(C)cc2)cc1", "note": "(centres undefined)", "activity change, negative = inhibition": "inconclusive: -20.3%"}, {"smiles": "Oc1ccc(Cl)cc1-c1cc(C(F)(F)C(F)F)nc(-c2ccccc2)n1", "Potency": "inconclusive: 0.461 µM [rising, full curve, poor fit]"}, {"smiles": "COc1cc(/C=N/NC(N)=O)ccc1OCC(=O)N1C(C)CCCC1C", "note": "(centres undefined)", "activity change, negative = inhibition": "inconclusive: -1.13%"}, {"smiles": "O=C(C(Cc1ccccc1)n1cccc1)N1CCN(c2ncccn2)CC1", "note": "(centres undefined)", "activity change, negative = inhibition": "inconclusive: 0.793%"}, {"smiles": "COc1nc(Nc2cccc(C(F)(F)F)c2)nc(OC)n1", "activity change, negative = inhibition": "inconclusive: 2.31%"}, {"smiles": "Cc1ccc(C(C(=O)NCc2ccco2)N(CCc2ccccc2)C(=O)Cn2nnc3ccccc32)o1", "note": "(centres undefined)", "activity change, negative = inhibition": "inconclusive: -5.79%"}, {"smiles": "CCOC(=O)c1c(C)n(C)c2ccc(OCC(O)CN3C(=O)c4ccccc4S3(=O)=O)cc12", "note": "(centres undefined)", "activity change, negative = inhibition": "inactive: 3.86%"}, {"smiles": "O=C(NC(=S)Nc1nc(-c2ccccc2)cs1)c1cccnc1", "activity change, negative = inhibition": "inactive: 15.5%"}, {"smiles": "COC(=O)c1cccc(Oc2nc3c(c(=O)n(C)c(=O)n3C)n2C(C)C)c1", "activity change, negative = inhibition": "inconclusive: 6.19%"}, {"smiles": "CN1CCN(C(=S)Nc2ccc(Cl)cc2)CC1", "activity change, negative = inhibition": "inconclusive: 12.3%"}, {"smiles": "O=C(NNC(=S)Nc1ccccc1)c1cccs1", "Potency": "inconclusive: 23.1 µM [falling, partial curve]"}, {"smiles": "CN(C(=O)Nc1ccc(Cl)c(Cl)c1)c1ccccc1C(=O)O", "activity change, negative = inhibition": "inactive: 0.667%"}, {"smiles": "Cc1ccc(C(=O)NCCc2ccccc2)cc1", "Potency": "inconclusive: 25.1 µM [falling, partial curve]"}, {"smiles": "Cc1ccccc1CNC(=O)c1ccccc1NS(C)(=O)=O", "activity change, negative = inhibition": "inconclusive: 5.21%"}, {"smiles": "CCCOc1c(OC)cccc1C1CC(=O)Nc2cc3c(cc21)OCO3", "note": "(centres undefined)", "Potency": "inconclusive: 25.9 µM [falling, partial curve, poor fit]"}, {"smiles": "COc1cc(Cl)c(C)cc1NC(=O)c1cc(S(=O)(=O)N(C)C)ccc1N1CCCC1", "activity change, negative = inhibition": "inconclusive: -0.138%"}, {"smiles": "COc1cccc(N2CC(O)=C(c3nc4ccccc4c(=O)[nH]3)C2=N)c1", "Potency": "inconclusive: 10 µM [cytotoxic, partial curve]"}, {"smiles": "CCOc1ccc(-c2nnn(CC#N)n2)cc1OC", "Potency": "inconclusive: 20.6 µM [falling, partial curve]"}, {"smiles": "COCc1c(C(=O)Nc2ccc3nc(N4CCOCC4)sc3c2)oc2ccccc12", "activity change, negative = inhibition": "inconclusive: -18.1%"}, {"smiles": "CC(Oc1ccccc1)C(=O)Nc1ccc(S(=O)(=O)N2CCN(C)CC2)cc1", "note": "(centres undefined)", "activity change, negative = inhibition": "inactive: 1.9%"}, {"smiles": "CC(=O)Nc1sc2c(c1C#N)CCN(Cc1ccccc1)C2", "activity change, negative = inhibition": "inconclusive: -3.62%"}, {"smiles": "COc1cccc(NC(=O)C2C3C=CC4(O3)C2C(=O)N(CCCN2CCCCC2)C4C(=O)NC2CCCCC2)c1", "note": "(centres undefined)", "activity change, negative = inhibition": "inactive: 12.9%"}, {"smiles": "COc1ccccc1/C=C/C(=O)c1ccc(NC(C)=O)cc1", "Potency": "inconclusive: 23.1 µM [falling, partial curve]"}, {"smiles": "O=C(CN1C(=O)NC2(CCCc3ccccc32)C1=O)N1CCc2ccccc2C1", "note": "(centres undefined)", "activity change, negative = inhibition": "inactive: 0.435%"}, {"smiles": "O=[N+]([O-])c1cc(S(=O)(=O)N2CCCCCC2)ccc1F", "Potency": "inconclusive: 20.6 µM [rising, partial curve, poor fit]"}, {"smiles": "Cc1nc(C2COc3ccccc3O2)sc1C(=O)O", "note": "(centres undefined)", "Potency": "inconclusive: 25.1 µM [falling, single point]"}, {"smiles": "CCC(=O)Nc1ccc(C(=O)COC(=O)C(CCSC)NC(=O)COc2ccccc2)cc1", "note": "(centres undefined)", "activity change, negative = inhibition": "inconclusive: 5.29%"}, {"smiles": "COc1cccc(CNc2ccc3c(c2)CCC3)c1", "activity change, negative = inhibition": "inconclusive: 14.8%"}, {"smiles": "COc1ccc(C(=O)c2sc(Nc3ccccc3F)nc2N)cc1", "activity change, negative = inhibition": "inconclusive: -23.2%"}, {"smiles": "O=C(Nc1ccccc1N1CCCCC1)c1ccccc1F", "activity change, negative = inhibition": "inconclusive: 9.84%"}, {"smiles": "CN(CC(=O)Nc1ccc([N+](=O)[O-])cc1Br)Cc1c(F)cccc1Cl", "Potency": "inconclusive: 11.2 µM [rising, partial curve, poor fit]"}, {"smiles": "O=C(Cn1c(CCCO)nc2ccccc21)Nc1ccccc1-c1ccccc1", "activity change, negative = inhibition": "inconclusive: 0.527%"}, {"smiles": "Cc1ccc(C(=O)N/C(=C\\c2cn(C)c3ccccc23)C(=O)NCCCN2CCOCC2)cc1", "activity change, negative = inhibition": "inactive: 3.6%"}, {"smiles": "COc1cc(CNc2nc3ccccc3s2)cc(OC)c1OC", "Potency": "inconclusive: 12.6 µM [falling, partial curve, poor fit]"}, {"smiles": "C=CCNC(=O)NC(=O)COC(=O)CNS(=O)(=O)c1ccc(F)c(F)c1F", "activity change, negative = inhibition": "inconclusive: -9.89%"}, {"smiles": "O=C(NCC1(c2ccccc2)CCCC1)c1ccccc1", "activity change, negative = inhibition": "inconclusive: 14.8%"}, {"smiles": "CC(C)CCNC(=O)CCc1nnc2ccc(N3CCC(C)CC3)nn12", "activity change, negative = inhibition": "inconclusive: 0.895%"}, {"smiles": "CCc1ccc(NC(=O)CSc2nc(=O)n3cc(C)ccc3n2)cc1", "activity change, negative = inhibition": "inconclusive: 9.01%"}, {"smiles": "COc1ccc(C2=Nn3c(nnc3-c3ccccc3Cl)SC2)cc1OC1CCCC1", "activity change, negative = inhibition": "inconclusive: -8.77% [cytotoxic]"}, {"smiles": "O=C(Nc1ccc(Cl)c(Cl)c1)c1ccc(Cl)c(Cl)c1", "activity change, negative = inhibition": "inconclusive: -1.01%"}, {"smiles": "COC(=O)C1=C(C(=O)OC)C(c2ccccc2O)c2sc(=O)[nH]c2S1", "note": "(centres undefined)", "activity change, negative = inhibition": "inconclusive: 2.06%"}, {"smiles": "CCc1ccc2oc(C(=O)N3CCN(c4ccccc4OC)CC3)cc(=O)c2c1", "activity change, negative = inhibition": "inactive: -12%"}, {"smiles": "CC(C)C[C@H](NC(=O)c1nc[nH]c1C(=O)N[C@@H](CCCCNC(=O)OC(C)(C)C)C(=O)OC(C)(C)C)C(=O)OCc1ccccc1", "activity change, negative = inhibition": "inactive: 8.07%"}]}]}
